According to patent US7393845B2 (H. Lundbeck A/S, priority 2001, dated 2008):
Some results were stated once for a whole list of compounds, not compound by compound.

Tested on: 3H-5-HT uptake into whole rat brain synaptosomes
Experiment: Inhibition of 3H-5-HT uptake into rat brain synaptosomes
Assay type: biochemical
Conditions: in vitro

N#Cc1cccnc1SCCN1CCN(c2cccc3c2OCCO3)CC1 [Compound 2a]
IC50: < 20 nM
